The test system of data set [1] is HOTTIP expression in MDA-MB-231 cells.
The subject of data set [2] is FOXD3-AS1 expression in MDA-MB-231 cells.
[3] abbreviates: MDA-MB-231, 10 μM, one-day treatment.
Setting [4] is: MDA-MB-231, 10 μM, three-day treatment.
The mark [5] stands for this setting: MDA-MB-231, 10 μM, one/three days.

“Also recorded” adds a separate entry of the source. Where two headings read alike, the source gives them in different places.

Take `CN1CCN(c2ccc(-c3cccc(CN4CCOCC4)c3)cc2NC(=O)c2c[nH]c(=O)cc2C(F)(F)F)CC1` [OICR-9429]: the “effect on HOTTIP expression” value in data set [1] (MDA-MB-231, 1 μM, three days) is “not enough to reduce the expression of HOTTIP significantly”; in data set [1] (setting [3]) it was “small but significant effect”; in data set [1] (setting [4]) it was “able to reduce HOTTIP expression after three days of treatment”. Further, the “effect on FOXD3-AS1 expression” value in data set [2] (setting [5]) was “could downregulate FOXD3-AS1”.
Take `CNC(=O)c1cc(C2(C#N)CCC2)cc(NS(=O)(=O)c2cc(Br)cc(Cl)c2O)c1O` [7k, 3-((5-Bromo-3-chloro-2-hydroxyphenyl)sulfonamido)-5-(1cyanocyclobutyl)-2-hydroxy-N-methylbenzamide]: the results for the “effect on HOTTIP expression” value in data set [1] (setting [3]) and in data set [1] (setting [4]) were “no effect could be observed” and “down-regulation of HOTTIP after three days of treatment; also recorded: able to reduce HOTTIP expression but longer incubation times of three days were required to observe the effect; also recorded: able to downregulate HOTTIP”, respectively. Moreover, the “effect on FOXD3-AS1 expression” value was “did not provide significant changes; also recorded: did not influence FOXD3-AS1 expression; also recorded: could not” in data set [2] (setting [5]) and “not sensitive to the treatment of molecule 7k in the concentration range used” in data set [2] (MDA-MB-231, 1/5/10 μM, three days).
